The list shows a part of the results. Single values are uncertain, as repeats are few or missing.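 Imaging used 1,536-well plates; nuclei positive for cleaved PARP by antibody were divided by total DNA-stained nuclei to yield the apoptosis fraction. Doses for screening kept most cells viable, and cell lines differ markedly in resting and induced cleaved-PARP levels.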
System: C32
Assay: cleaved PARP positive nuclei fraction relative to DMSO control; melanoma cells; higher = more apoptosis
Details: library dose: low library concentration; 72 h

SMILES	cleaved PARP positive nuclei fraction
CN(NC(=O)CC(=O)NN(C)C(=S)c1ccccc1)C(=S)c1ccccc1 + CCCCCCCCCCCC1=C(O)C(=O)C=C(O)C1=O [Embelin] (first compound 0.006 µM, partner dose 1.2 µM)	144%
COc1ccc2c(c1)CCC1C2CCC2(C)C(NCCCCCCN3C(=O)C=CC3=O)CCC12 (stereo unspecified) + O=c1cc(-c2cccc3c2Sc2ccccc2S3)oc(N2CCOCC2)c1 [KU55933] (first compound 0.4 µM, partner dose 1 µM)	68.4%
COc1ccc2c(c1)CCC1C2CCC2(C)C(NCCCCCCN3C(=O)C=CC3=O)CCC12 (stereo unspecified) + Oc1nc(-c2ccc(C(F)(F)F)cc2)nc2c1CSCC2 [XAV939] (first compound 0.4 µM, partner dose 2 µM)	132%
O=C(O)c1ccc(-c2c[nH]c3ncc(-c4ccccc4)cc23)cc1C1CCCC1 + COc1ccc2c(c1)CCC1C2CCC2(C)C(NCCCCCCN3C(=O)C=CC3=O)CCC12 [U73122] (first compound 0.16 µM, partner dose 0.4 µM)	114%
CCc1ccc(CCOc2ccc(CC3SC(=O)NC3=O)cc2)nc1 (stereo unspecified) [pioglitazone] + Oc1nc(-c2ccc(C(F)(F)F)cc2)nc2c1CSCC2 [XAV939] (first compound 2 µM, partner dose 2 µM)	144%
COc1cc2c(Oc3ccc4[nH]c(C)cc4c3F)ncnc2cc1OCCCN1CCCC1 [cediranib] + COc1cc2ncnc(Nc3ccc(Oc4ccccc4)cc3)c2cc1OC [SrcI1] (first compound 0.4 µM, partner dose 2 µM)	42.7%
N#Cc1c(O)c2c(-c3ccc(-c4ccccc4O)cc3)csc2[nH]c1=O + COc1cc2ncnc(Nc3ccc(Oc4ccccc4)cc3)c2cc1OC [SrcI1] (first compound 2 µM, partner dose 2 µM)	87.1%
CN(NC(=O)CC(=O)NN(C)C(=S)c1ccccc1)C(=S)c1ccccc1 + CC(C)CCN1c2nc(Nc3cc(F)c(O)c(F)c3)ncc2N(C)C(=O)C1C [BID1870] (first compound 0.006 µM, partner dose 0.2 µM)	459%
CCc1ccc(CCOc2ccc(CC3SC(=O)NC3=O)cc2)nc1 (stereo unspecified) [pioglitazone] + N#Cc1c(O)c2c(-c3ccc(-c4ccccc4O)cc3)csc2[nH]c1=O [A769662] (first compound 2 µM, partner dose 2 µM)	78.6%
Oc1nc(-c2ccc(C(F)(F)F)cc2)nc2c1CSCC2 + CCCCCCCCCCCC1=C(O)C(=O)C=C(O)C1=O [Embelin] (first compound 2 µM, partner dose 1.2 µM)	127%
CCN(CC)CCCCNc1ncc2cc(-c3cc(OC)cc(OC)c3)c(NC(=O)NC(C)(C)C)nc2n1 + Cn1cc(/C=C2\C(=O)Nc3cccnc32)c2ccccc21 [GW441756] (first compound 0.1 µM, partner dose 0.4 µM)	45.8%
CCc1ccc(CCOc2ccc(CC3SC(=O)NC3=O)cc2)nc1 (stereo unspecified) [pioglitazone] + Cn1cc(/C=C2\C(=O)Nc3cccnc32)c2ccccc21 [GW441756] (first compound 2 µM, partner dose 0.4 µM)	86.3%
COc1ccc(COc2ccc(Cc3cnc(N)nc3N)cc2OC)cc1 + COc1cc2ncnc(Nc3ccc(Oc4ccccc4)cc3)c2cc1OC [SrcI1] (first compound 1 µM, partner dose 2 µM)	85.2%
O=S(=O)(c1ccccc1)N(CC(F)(F)F)c1ccc(C(O)(C(F)(F)F)C(F)(F)F)cc1 + COc1cc2ncnc(Nc3ccc(Oc4ccccc4)cc3)c2cc1OC [SrcI1] (first compound 1.4 µM, partner dose 2 µM)	144%
COc1ccc2c(c1)CCC1C2CCC2(C)C(NCCCCCCN3C(=O)C=CC3=O)CCC12 (stereo unspecified) + Cn1cc(/C=C2\C(=O)Nc3cccnc32)c2ccccc21 [GW441756] (first compound 0.4 µM, partner dose 0.4 µM)	122%
CN(NC(=O)CC(=O)NN(C)C(=S)c1ccccc1)C(=S)c1ccccc1 + Cc1cc([N+](=O)[O-])ccc1NS(=O)(=O)c1cc(Cl)ccc1Cl [FH535] (first compound 0.006 µM, partner dose 1 µM)	168%
N#Cc1c(O)c2c(-c3ccc(-c4ccccc4O)cc3)csc2[nH]c1=O + c1cc(-c2cnn3cc(-c4ccc(OCCN5CCCCC5)cc4)cnc23)ccn1 [Dorsomorphin] (first compound 2 µM, partner dose 0.4 µM)	130%
CCc1ccc(CCOc2ccc(CC3SC(=O)NC3=O)cc2)nc1 (stereo unspecified) [pioglitazone] + COc1ccc(COc2ccc(Cc3cnc(N)nc3N)cc2OC)cc1 [GW2580] (first compound 2 µM, partner dose 1 µM)	131%

SMILES	cleaved PARP positive nuclei fraction
COc1cc2c(Oc3ccc4[nH]c(C)cc4c3F)ncnc2cc1OCCCN1CCCC1 [cediranib] + CCc1ccc(CCOc2ccc(CC3SC(=O)NC3=O)cc2)nc1 [pioglitazone] (first compound 0.4 µM, partner dose 2 µM)	75.6%
COc1ccc(-c2ccc3c(N4CCOCC4)nc(N4C[C@@H](C)O[C@@H](C)C4)nc3n2)cc1CO + COc1cc2ncnc(Nc3ccc(Oc4ccccc4)cc3)c2cc1OC [SrcI1] (first compound 0.02 µM, partner dose 2 µM)	69.1%
O=C(O)c1ccc(-c2c[nH]c3ncc(-c4ccccc4)cc23)cc1C1CCCC1 + O=S(=O)(c1ccccc1)N(CC(F)(F)F)c1ccc(C(O)(C(F)(F)F)C(F)(F)F)cc1 [T0901317] (first compound 0.16 µM, partner dose 1.4 µM)	94.5%
COc1ccc(-c2ccc3c(N4CCOCC4)nc(N4C[C@@H](C)O[C@@H](C)C4)nc3n2)cc1CO + CCN(CC)CCCCNc1ncc2cc(-c3cc(OC)cc(OC)c3)c(NC(=O)NC(C)(C)C)nc2n1 [PD173074] (first compound 0.02 µM, partner dose 0.1 µM)	66.5%
Oc1cc(-c2nc(-c3ccccc3)[nH]c2-c2ccncc2)ccc1Cl + O=C1NC(=O)/C(=C/c2ccc(-c3ccc(F)cc3O)o2)S1 [AS252424] (first compound 0.2 µM, partner dose 1 µM)	50.2%
CCc1ccc(CCOc2ccc(CC3SC(=O)NC3=O)cc2)nc1 (stereo unspecified) [pioglitazone] + O=C(Nc1ccccc1)c1cc([N+](=O)[O-])ccc1Cl [GW9662] (first compound 2 µM, partner dose 2 µM)	126%
COc1ccc2c(c1)CCC1C2CCC2(C)C(NCCCCCCN3C(=O)C=CC3=O)CCC12 (stereo unspecified) + O=C(O)C(=O)Nc1sc2c(c1C(=O)O)CCNC2 [TCS401] (first compound 0.4 µM, partner dose 1.66667 µM)	146%
CN(C)S(=O)(=O)c1ccc2c(c1)/C(=C/c1cc3c([nH]1)CCCC3)C(=O)N2 + COc1cc(N2CCC(N3CCN(C)CC3)CC2)ccc1Nc1ncc(Cl)c(Nc2ccccc2S(=O)(=O)C(C)C)n1 [NVP-TAE684] (first compound 0.4 µM, partner dose 0.08 µM)	192%
CN(C)S(=O)(=O)c1ccc2c(c1)/C(=C/c1cc3c([nH]1)CCCC3)C(=O)N2 + N#Cc1c(O)c2c(-c3ccc(-c4ccccc4O)cc3)csc2[nH]c1=O [A769662] (first compound 0.4 µM, partner dose 2 µM)	153%
COc1ccc2c(c1)CCC1C2CCC2(C)C(NCCCCCCN3C(=O)C=CC3=O)CCC12 (stereo unspecified) + CC(C)CCN1c2nc(Nc3cc(F)c(O)c(F)c3)ncc2N(C)C(=O)C1C [BID1870] (first compound 0.4 µM, partner dose 0.2 µM)	49%
CCc1ccc(CCOc2ccc(CC3SC(=O)NC3=O)cc2)nc1 (stereo unspecified) [pioglitazone] + Oc1cc(-c2nc(-c3ccccc3)[nH]c2-c2ccncc2)ccc1Cl [L779450] (first compound 2 µM, partner dose 0.2 µM)	93.6%
CCc1ccc(CCOc2ccc(CC3SC(=O)NC3=O)cc2)nc1 (stereo unspecified) [pioglitazone] + CC(C)CCN1c2nc(Nc3cc(F)c(O)c(F)c3)ncc2N(C)C(=O)C1C [BID1870] (first compound 2 µM, partner dose 0.2 µM)	135%
CN(NC(=O)CC(=O)NN(C)C(=S)c1ccccc1)C(=S)c1ccccc1 + O=c1cc(-c2cccc3c2Sc2ccccc2S3)oc(N2CCOCC2)c1 [KU55933] (first compound 0.006 µM, partner dose 1 µM)	139%
O=C(O)c1ccc(-c2c[nH]c3ncc(-c4ccccc4)cc23)cc1C1CCCC1 + Oc1nc(-c2ccc(C(F)(F)F)cc2)nc2c1CSCC2 [XAV939] (first compound 0.16 µM, partner dose 2 µM)	224%
COc1ccc(COc2ccc(Cc3cnc(N)nc3N)cc2OC)cc1 + COc1cc(N2CCC(N3CCN(C)CC3)CC2)ccc1Nc1ncc(Cl)c(Nc2ccccc2S(=O)(=O)C(C)C)n1 [NVP-TAE684] (first compound 1 µM, partner dose 0.08 µM)	73.1%
COc1ccc2c(c1)CCC1C2CCC2(C)C(NCCCCCCN3C(=O)C=CC3=O)CCC12 (stereo unspecified) + c1cc(-c2cnn3cc(-c4ccc(OCCN5CCCCC5)cc4)cnc23)ccn1 [Dorsomorphin] (first compound 0.4 µM, partner dose 0.4 µM)	64.2%
NCC(=O)Nc1ccc(-n2nc(C(F)(F)F)cc2-c2ccc3c(ccc4ccccc43)c2)cc1 + COc1ccc(COc2ccc(Cc3cnc(N)nc3N)cc2OC)cc1 [GW2580] (first compound 1 µM, partner dose 1 µM)	48.3%
COc1cc2ncnc(Nc3ccc(Oc4ccccc4)cc3)c2cc1OC + COc1cc(N2CCC(N3CCN(C)CC3)CC2)ccc1Nc1ncc(Cl)c(Nc2ccccc2S(=O)(=O)C(C)C)n1 [NVP-TAE684] (first compound 2 µM, partner dose 0.08 µM)	139%
